This passage reports isolated yield results from US20130197189A1 (The Regents of the University of Colorado, A Body Corporate, priority 2010, published 2013).

A short description of the series: general procedure: Fmoc solid-phase peptide synthesis; Rink Amide MBHA resin (~0.5 mmol/g); HBTU/NMM. The note with it: whole synthesis, scale of the general procedure 0.50 mmol, 0.25-0.5 mmol.

H-CGGRGDS-NH2 gave an isolated yield of 82%.
